Laboratory results published in PubChem BioAssay AID540276 (National Center for Advancing Translational Sciences (NCATS), 2011).
Screen size: about 300,000 compounds; about 5,400 (1.8%) were called active. Inconclusive means that the source gave no clear call. Such entries were picked first, then a sample of the others. Calls come from the whole dose curve; tested in HEK293 cells. Potencies beside an inconclusive call are fits to weak or partial responses and may not hold up.

Test: qHTS for inhibitors of binding or entry into cells for Marburg Virus
Conditions: Marburg virus pseudotyped entry inhibition, cell reporter; series mostly up to 37.8 µM
Potency is the fitted concentration of half-maximal effect.

Row | SMILES | Potency
1 | Cc1ccc(-n2c(C)cc(C(=S)N3CCOCC3)c2C)cc1C | inconclusive: 32.6 µM [inhibitor, single point]
2 | C=CCSc1nnc(NC(=O)c2nc(SCC)ncc2Cl)s1 | inactive
3 | CC(C)COc1ccc(-c2cc(C(=O)NN)[nH]n2)cc1 | inactive
4 | Cc1ccc(S(=O)(=O)Nc2ccc(-c3nc4ccc(C)cc4s3)cc2)cc1 | inactive
5 | COc1ccc(-c2c(C)nn3c(N4CCOCC4)cc(C)nc23)cc1OC | inactive
6 | CC(CC(=O)Nc1ccc(Cl)c(S(=O)(=O)N2CCOCC2)c1)c1ccccc1 (centres undefined) | inconclusive: 7.94 µM [inhibitor, partial curve]
7 | CCOC(=O)c1ccc(NC(=O)Cn2nnc(-c3ccc(F)cc3)n2)cc1 | inconclusive: 16.4 µM [inhibitor, single point]
8 | COc1ccc(CN2CCC(CO)(CCOc3ccccc3)CC2)cc1C | inconclusive: 10 µM [inhibitor, partial curve, poor fit]
9 | CC(C)(C)OC(=O)N1CCC2(CC1)C(C#N)=C(N)OC1=C2C(=O)CCC1 | inconclusive: 2.82 µM [activator, full curve]
10 | O=C(Nc1ccccc1)N1CCCc2ccccc21 | inconclusive: 6.31 µM [inhibitor, single point]
11 | CN1C(=O)/C(=C/c2ccco2)SC1=Nc1cccc(C(=O)O)c1 | inconclusive: 12.6 µM [activator, partial curve, poor fit]
12 | COc1ccc(Cl)cc1C(=O)Nc1ccc(OCC(=O)N2CCOCC2)cc1 | inactive
13 | CCN(CC)CCN1c2ccccc2Sc2ccccc21 | inconclusive: 22.4 µM [inhibitor, partial curve, poor fit]
14 | COc1c(/C=N/Nc2nc(N3CCCCC3)nc(N3CCCCC3)n2)cccc1[N+](=O)[O-] | inconclusive: 0.073 µM [inhibitor, full curve, poor fit]
15 | Cc1ccc(NC(=O)c2cc(-c3cccs3)on2)cc1 | inconclusive: 25.1 µM [activator, single point]
16 | COc1ccccc1NP1(=O)OCC(C)([N+](=O)[O-])CO1 (centres undefined) | inconclusive: 11.2 µM [activator, partial curve, poor fit]
17 | COCCn1c(C)cc(/C=N/NC(=O)c2cccnc2)c1C | inconclusive: 10 µM [activator, partial curve, poor fit]
18 | COc1ccc(CCN2C(=O)CC(Cc3ccc(Br)cc3)C2=O)cc1OC (centres undefined) | inconclusive: 5.17 µM [inhibitor, full curve]
19 | CN(C)c1cccc(C(=O)OCC(=O)Nc2ccccc2Cl)c1 | inconclusive: 35.5 µM [inhibitor, single point]
20 | Cc1nnc(SCc2c(Cl)cccc2Cl)s1 | inactive
21 | COc1ccc(/C=C/C(=O)NC(=S)Nc2ccc(S(N)(=O)=O)cc2)cc1OC | inactive
22 | N#Cc1cc([N+](=O)[O-])ccc1N1CCCC1 | inconclusive: 4.11 µM [inhibitor, partial curve, poor fit]

3 of these compounds, set out differently.
Row,SMILES,Potency
5,COc1ccc(-c2c(C)nn3c(N4CCOCC4)cc(C)nc23)cc1OC,inactive
6,CC(CC(=O)Nc1ccc(Cl)c(S(=O)(=O)N2CCOCC2)c1)c1ccccc1 (centres undefined),"inconclusive: 7.94 µM [inhibitor, partial curve]"
7,CCOC(=O)c1ccc(NC(=O)Cn2nnc(-c3ccc(F)cc3)n2)cc1,"inconclusive: 16.4 µM [inhibitor, single point]"

(more compounds)

Row | SMILES | Potency
23 | O=C1CCCC/C1=C\Nc1ccccc1C(=O)O | inactive
24 | CC(C)[C@H](NC(=O)C1(c2ccccc2)CCN(C(=O)OC(C)(C)C)CC1)C(=O)O | inconclusive: 0.146 µM [inhibitor, full curve, poor fit]
25 | CC1CN(c2nc3ccccc3nc2C(C#N)C(=O)NC2CCCCC2)CC(C)O1 (centres undefined) | inactive
26 | COc1cc2c(cc1OC)C(C(=O)Nc1ccc3c(c1)OCCO3)C1c3ccccc3CCN1C2=O (centres undefined) | inactive
27 | N#C/C(=C/c1ccc(-c2ccc(Br)cc2)o1)C(=O)NC1CCCCC1 | inconclusive: 1.41 µM [inhibitor, partial curve, poor fit]
28 | CCN(CC)C(=O)Cn1cc(C(=O)C(=O)N(C)C2CCN(C)CC2)c2ccccc21 | inactive
29 | Cc1cc2cc(CCNC(=O)c3cccc([N+](=O)[O-])c3)c(=O)[nH]c2cc1C | inconclusive: 25.1 µM [inhibitor, single point]
30 | c1ccc(COC2CCCN(Cc3nc(-c4cccs4)no3)C2)nc1 (centres undefined) | inconclusive: 3.16 µM [inhibitor, partial curve, poor fit]
31 | CCOc1ccc(S(=O)(=O)Nc2ccc3c(c2)n(C)c(=O)n3C)cc1 | inactive
32 | CCCCNC(=O)CSc1nc2ccccc2c(=O)n1C1CCCC1 | inconclusive: 5.8 µM [inhibitor, partial curve, poor fit]
33 | C/C(=N\Nc1ccc(C)c(Cl)c1)c1ccncc1 | inconclusive: 2.82 µM [activator, single point]
34 | Cc1ccc(S(=O)(=O)N(CC(=O)NCc2ccncc2)Cc2ccccc2F)cc1 | inconclusive: 14.1 µM [activator, single point]
35 | Cc1cc([N+](=O)[O-])c2[nH]c(C(=O)N/N=C/c3ccccc3C(=O)O)c(-c3ccccc3)c2c1 | inactive
36 | CCCC1=NN2C(=N)/C(=C\c3ccc(OCCOc4ccc(NC(C)=O)cc4)c(OC)c3)C(=O)N=C2S1 | inactive
37 | N#C/C(Cn1c[n+](NC(=O)Nc2ccccc2)cn1)=N/O | inconclusive: 6.51 µM [activator, single point]
38 | COc1cc(-c2nnn(CC#N)n2)ccc1OCc1ccccc1 | inconclusive: 9.2 µM [activator, partial curve, poor fit]
39 | COc1cc2ccccc2cc1C(=O)N1CCN(c2ccccn2)CC1 | inconclusive: 35.5 µM [inhibitor, single point]
40 | O=C(/C=C/c1ccc2c(c1)OCO2)c1ccccc1 | inconclusive: 5.31 µM [activator, single point]
41 | COc1ccc(-c2cc(C(=O)NCC3CCCO3)c3cc(C)ccc3n2)cc1 (centres undefined) | inconclusive: 17.8 µM [inhibitor, partial curve, poor fit]
42 | O=C(Nc1ccc(Cl)cc1)N1CCC(c2nc(-c3ccccc3Cl)no2)CC1 | inconclusive: 25.1 µM [inhibitor, single point]
43 | [O-][n+]1c2c(nn1-c1ccccc1)/C(=N/O)CCC2 | inactive
44 | CCC(C)c1ccc(O)c(/C=N/O)c1 (centres undefined) | inconclusive: 22.4 µM [inhibitor, single point]
